From the supplement of paper PMC10849652
The other results are listed elsewhere or left out.

Protein sequences, listed by entry. Tags and fused reporters are not part of them. Lines headed by an entry give the natural chain unless they say otherwise; changes in a name come on top.
UniProt Q658P3: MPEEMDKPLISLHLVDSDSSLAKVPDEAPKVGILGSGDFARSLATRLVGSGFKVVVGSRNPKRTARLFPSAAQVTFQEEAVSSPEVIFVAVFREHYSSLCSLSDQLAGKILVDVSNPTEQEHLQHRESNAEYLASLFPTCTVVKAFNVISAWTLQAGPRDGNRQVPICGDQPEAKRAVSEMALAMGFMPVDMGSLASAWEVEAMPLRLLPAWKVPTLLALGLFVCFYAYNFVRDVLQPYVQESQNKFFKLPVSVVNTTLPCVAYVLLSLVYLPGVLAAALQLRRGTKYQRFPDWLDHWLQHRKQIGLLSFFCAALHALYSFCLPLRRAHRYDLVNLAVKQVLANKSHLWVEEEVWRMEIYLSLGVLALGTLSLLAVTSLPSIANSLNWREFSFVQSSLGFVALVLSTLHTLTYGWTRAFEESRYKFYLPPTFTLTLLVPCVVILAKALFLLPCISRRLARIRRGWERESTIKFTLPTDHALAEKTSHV
UniProt P08240: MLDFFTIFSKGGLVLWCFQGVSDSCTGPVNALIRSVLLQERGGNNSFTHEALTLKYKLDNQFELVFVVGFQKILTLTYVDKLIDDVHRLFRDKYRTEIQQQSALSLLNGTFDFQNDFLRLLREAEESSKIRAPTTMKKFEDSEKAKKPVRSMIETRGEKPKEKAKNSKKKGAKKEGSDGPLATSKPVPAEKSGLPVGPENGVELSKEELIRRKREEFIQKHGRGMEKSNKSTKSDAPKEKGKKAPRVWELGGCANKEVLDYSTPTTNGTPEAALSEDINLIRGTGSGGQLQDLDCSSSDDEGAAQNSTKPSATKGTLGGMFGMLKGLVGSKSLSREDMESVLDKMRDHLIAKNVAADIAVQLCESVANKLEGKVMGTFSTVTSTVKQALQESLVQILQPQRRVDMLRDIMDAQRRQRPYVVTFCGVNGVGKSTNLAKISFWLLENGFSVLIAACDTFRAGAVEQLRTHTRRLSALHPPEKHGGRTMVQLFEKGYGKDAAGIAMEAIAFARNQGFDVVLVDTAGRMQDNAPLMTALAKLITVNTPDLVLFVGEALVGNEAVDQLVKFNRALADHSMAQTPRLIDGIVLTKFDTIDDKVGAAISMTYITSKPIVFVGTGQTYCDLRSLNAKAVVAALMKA
UniProt Q9UHB9: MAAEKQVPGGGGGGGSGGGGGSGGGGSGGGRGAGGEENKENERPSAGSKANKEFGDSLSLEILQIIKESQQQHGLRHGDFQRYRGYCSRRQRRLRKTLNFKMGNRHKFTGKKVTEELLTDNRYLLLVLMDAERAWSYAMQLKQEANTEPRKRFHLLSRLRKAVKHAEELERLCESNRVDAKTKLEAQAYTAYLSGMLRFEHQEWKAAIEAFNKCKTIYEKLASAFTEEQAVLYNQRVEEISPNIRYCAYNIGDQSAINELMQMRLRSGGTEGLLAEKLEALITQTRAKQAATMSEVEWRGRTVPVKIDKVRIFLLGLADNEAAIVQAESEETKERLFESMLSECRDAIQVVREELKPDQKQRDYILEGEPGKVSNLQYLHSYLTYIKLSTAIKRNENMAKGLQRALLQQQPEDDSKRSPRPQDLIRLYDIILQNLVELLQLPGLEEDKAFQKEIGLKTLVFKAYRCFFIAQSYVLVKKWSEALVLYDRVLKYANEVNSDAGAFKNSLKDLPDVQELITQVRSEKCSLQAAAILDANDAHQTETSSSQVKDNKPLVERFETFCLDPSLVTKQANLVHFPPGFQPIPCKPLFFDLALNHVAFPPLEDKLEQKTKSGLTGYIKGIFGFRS
UniProt Q96SB4, whole entry, looked up: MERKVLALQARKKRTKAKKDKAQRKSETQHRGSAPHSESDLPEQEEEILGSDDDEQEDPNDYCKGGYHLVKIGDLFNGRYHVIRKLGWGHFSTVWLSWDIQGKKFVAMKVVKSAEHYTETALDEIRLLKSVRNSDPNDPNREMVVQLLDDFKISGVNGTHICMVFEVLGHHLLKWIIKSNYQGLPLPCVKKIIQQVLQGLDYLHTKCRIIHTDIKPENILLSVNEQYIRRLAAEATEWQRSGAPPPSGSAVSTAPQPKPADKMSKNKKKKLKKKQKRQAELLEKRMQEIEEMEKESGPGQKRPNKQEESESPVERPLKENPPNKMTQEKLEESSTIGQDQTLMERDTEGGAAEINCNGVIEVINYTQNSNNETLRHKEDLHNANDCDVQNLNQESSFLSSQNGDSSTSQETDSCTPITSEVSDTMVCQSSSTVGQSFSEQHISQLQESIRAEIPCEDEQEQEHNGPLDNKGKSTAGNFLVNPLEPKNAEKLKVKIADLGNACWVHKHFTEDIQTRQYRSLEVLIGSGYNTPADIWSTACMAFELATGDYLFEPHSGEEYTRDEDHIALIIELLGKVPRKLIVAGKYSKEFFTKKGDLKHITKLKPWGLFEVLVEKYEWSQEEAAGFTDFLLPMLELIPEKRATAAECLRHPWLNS
UniProt Q9NSC7: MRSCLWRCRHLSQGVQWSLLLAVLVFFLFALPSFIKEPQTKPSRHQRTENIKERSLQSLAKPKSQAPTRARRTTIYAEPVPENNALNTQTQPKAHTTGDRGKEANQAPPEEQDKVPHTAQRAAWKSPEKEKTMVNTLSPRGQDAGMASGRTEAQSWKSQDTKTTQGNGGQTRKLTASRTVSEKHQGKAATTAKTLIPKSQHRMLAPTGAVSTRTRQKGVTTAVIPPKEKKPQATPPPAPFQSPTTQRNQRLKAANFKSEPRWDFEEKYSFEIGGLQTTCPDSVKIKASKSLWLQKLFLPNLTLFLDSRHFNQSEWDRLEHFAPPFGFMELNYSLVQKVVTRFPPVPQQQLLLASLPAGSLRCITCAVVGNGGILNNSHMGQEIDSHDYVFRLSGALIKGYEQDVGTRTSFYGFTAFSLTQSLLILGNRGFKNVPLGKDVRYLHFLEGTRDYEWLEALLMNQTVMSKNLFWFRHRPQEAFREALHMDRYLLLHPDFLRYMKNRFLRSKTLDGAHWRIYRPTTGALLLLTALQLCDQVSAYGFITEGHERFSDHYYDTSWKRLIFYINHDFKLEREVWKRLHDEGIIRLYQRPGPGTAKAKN
UniProt Q9NYA1, whole entry, looked up: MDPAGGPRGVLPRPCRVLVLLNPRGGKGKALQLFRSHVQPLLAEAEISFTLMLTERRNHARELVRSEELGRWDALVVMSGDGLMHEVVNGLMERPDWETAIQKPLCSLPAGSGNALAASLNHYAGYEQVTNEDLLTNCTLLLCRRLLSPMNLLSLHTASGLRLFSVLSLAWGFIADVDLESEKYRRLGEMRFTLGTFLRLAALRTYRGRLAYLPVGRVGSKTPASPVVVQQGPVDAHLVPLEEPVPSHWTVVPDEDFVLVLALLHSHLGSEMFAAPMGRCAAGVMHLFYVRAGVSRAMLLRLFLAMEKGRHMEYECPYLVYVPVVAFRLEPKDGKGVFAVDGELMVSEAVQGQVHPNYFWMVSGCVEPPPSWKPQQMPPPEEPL
UniProt Q92783: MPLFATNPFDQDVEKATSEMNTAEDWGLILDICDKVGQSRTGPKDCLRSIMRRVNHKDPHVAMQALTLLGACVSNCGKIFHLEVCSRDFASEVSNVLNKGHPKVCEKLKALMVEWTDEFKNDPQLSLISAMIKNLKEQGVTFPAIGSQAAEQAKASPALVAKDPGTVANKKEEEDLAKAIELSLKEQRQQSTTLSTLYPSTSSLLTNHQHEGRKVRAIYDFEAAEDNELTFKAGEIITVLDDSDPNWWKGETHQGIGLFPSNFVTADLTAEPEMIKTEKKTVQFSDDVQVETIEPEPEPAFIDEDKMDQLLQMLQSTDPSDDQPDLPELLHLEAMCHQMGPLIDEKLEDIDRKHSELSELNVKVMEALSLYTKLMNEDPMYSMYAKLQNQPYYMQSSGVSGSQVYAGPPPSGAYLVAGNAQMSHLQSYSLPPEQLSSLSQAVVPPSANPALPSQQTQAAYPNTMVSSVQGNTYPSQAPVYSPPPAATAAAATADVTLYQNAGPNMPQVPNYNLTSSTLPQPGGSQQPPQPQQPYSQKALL
UniProt Q16842: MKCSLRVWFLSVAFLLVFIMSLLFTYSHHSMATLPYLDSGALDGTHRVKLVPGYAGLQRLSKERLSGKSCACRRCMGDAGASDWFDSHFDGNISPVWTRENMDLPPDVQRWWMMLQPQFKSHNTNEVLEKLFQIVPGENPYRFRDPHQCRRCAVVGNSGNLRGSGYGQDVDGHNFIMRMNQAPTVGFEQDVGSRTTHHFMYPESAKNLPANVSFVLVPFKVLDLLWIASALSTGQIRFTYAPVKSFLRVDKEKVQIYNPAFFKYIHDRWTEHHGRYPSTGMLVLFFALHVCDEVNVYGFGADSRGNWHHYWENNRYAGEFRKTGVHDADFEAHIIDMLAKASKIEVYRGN
UniProt Q8N1F8: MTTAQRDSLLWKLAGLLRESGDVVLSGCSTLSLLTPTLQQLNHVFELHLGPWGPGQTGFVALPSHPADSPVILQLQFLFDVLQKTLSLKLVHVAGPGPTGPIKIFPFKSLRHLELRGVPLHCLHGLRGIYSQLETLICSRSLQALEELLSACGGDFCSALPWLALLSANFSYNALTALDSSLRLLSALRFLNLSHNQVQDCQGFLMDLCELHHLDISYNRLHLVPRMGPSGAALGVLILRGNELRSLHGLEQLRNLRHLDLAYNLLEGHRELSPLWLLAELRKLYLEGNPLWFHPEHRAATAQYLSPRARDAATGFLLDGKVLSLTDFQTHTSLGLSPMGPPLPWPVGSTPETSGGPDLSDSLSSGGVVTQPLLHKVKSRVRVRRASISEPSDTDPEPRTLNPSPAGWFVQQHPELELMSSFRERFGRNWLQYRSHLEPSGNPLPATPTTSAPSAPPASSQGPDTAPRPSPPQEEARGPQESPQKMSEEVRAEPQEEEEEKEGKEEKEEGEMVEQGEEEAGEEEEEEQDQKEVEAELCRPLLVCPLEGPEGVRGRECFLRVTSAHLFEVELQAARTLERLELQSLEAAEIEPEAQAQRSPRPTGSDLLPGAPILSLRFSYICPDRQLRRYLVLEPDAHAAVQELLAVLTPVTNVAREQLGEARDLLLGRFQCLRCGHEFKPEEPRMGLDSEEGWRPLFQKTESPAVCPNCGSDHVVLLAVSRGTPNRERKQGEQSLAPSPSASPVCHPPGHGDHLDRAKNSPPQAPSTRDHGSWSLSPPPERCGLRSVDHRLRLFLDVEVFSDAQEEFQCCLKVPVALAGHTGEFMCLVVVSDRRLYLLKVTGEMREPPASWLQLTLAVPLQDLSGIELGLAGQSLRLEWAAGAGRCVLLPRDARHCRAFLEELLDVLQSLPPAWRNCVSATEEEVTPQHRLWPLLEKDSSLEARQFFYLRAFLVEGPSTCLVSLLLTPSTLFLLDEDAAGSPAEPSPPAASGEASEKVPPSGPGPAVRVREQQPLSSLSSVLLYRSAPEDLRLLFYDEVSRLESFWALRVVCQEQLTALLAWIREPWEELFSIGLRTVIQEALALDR
UniProt Q9Y6E0: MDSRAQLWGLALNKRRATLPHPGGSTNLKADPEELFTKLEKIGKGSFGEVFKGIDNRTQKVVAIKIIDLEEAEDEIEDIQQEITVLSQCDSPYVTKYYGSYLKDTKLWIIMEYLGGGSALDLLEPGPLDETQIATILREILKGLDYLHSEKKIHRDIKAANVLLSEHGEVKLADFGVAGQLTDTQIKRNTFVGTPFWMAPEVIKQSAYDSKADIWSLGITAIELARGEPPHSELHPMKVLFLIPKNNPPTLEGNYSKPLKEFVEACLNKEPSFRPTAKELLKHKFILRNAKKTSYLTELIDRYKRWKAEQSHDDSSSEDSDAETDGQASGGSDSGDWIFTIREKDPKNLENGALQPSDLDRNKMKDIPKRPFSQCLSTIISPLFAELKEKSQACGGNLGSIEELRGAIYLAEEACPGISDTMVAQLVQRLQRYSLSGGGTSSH
UniProt Q9BYN0: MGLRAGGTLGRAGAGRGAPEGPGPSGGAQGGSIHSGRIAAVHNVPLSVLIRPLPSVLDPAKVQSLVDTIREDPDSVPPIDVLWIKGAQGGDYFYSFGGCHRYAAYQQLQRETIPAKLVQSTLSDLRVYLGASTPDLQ
UniProt Q8TCT7: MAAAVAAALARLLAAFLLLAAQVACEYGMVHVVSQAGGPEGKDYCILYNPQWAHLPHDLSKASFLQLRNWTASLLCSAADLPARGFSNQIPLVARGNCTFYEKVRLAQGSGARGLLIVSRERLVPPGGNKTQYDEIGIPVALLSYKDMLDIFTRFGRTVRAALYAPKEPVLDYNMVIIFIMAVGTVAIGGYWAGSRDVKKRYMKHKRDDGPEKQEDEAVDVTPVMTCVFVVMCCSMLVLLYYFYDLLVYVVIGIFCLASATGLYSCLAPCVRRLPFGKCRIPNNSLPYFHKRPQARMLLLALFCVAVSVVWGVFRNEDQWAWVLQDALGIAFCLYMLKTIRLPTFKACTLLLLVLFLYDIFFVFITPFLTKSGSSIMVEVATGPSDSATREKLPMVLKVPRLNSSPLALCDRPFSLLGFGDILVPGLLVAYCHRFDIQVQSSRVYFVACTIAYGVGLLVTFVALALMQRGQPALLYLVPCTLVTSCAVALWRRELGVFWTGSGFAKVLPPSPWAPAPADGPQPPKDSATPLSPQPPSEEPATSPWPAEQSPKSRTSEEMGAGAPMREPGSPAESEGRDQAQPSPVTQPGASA

Columns and labels:
Assay in all cases: log2 fold change, soluble protein after heating vs DMSO (PISA); higher = thermal stabilisation; K562 cells, 10 uM, 30 min; active = over 0.2 and 3.5 SD of the protein, either way, in both replicates (recomputed)
[1] = compound: C1=CC=C(C=C1)[C@H](COC2=CC3=C(C=C2)NC(=O)N3)NC(=O)C4=CC=CN(C4=O)CC5=CC(=C(C=C5)F)F
Procedure, shortened: (§1)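 Quantification of soluble protein used TMTpro 16plex LC-MS/MS, with channel sums equalised. Samples were the supernatant after 21,000xg for 90 min of pooled aliquots from K562 cells (2×10^6 cells/mL) treated with 10 μM compound for 30 min, heated for 3 min over 48°C-58°C, and extracted in PBS with 0.5% NP-40 at 4°C. Values, from duplicates, describe thermal stability against control samples on a log2 fold-change scale.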

[2] = compound: CC1=C(SC2=C1C(=N[C@H](C3=NN=C(N32)C)CC(=O)N)C4=CC=C(C=C4)Cl)C
Procedure, shortened: as §1

[3] = compound: CC1=C2C(=CC=C1)N=C(N(C2=O)C3=CC=CC=C3C)CN4C=NC5=C(N=CN=C54)N
Procedure, shortened: as §1

[4] = compound: Cc1sc2c(c1C)C(c1ccc(Cl)cc1)=N[C@@H](CC(=O)OC(C)(C)C)c1nnc(C)n1-2
Procedure, shortened: as §1

[5] = compound: c1ccc([C@@H]2C[C@H]2NC2CCNCC2)cc1
Procedure, shortened: as §1

Measured: log2 fold change

SSRP1 (UniProt Q08945)
inactive: [1] -0.027 | [2] 0.023 | [3] 0.087 | [4] -0.051 | [5] -0.016

SRSF10 (UniProt O75494)
inactive: [1] 0.001 | [2] -0.475 | [3] -0.187 | [4] 0.249 | [5] 0.17

SPINDOC (UniProt Q9BUA3)
inactive: [1] 0.03 | [2] 0.02 | [3] -0.066 | [4] 0.145 | [5] 0.041

STEAP3 isoform 2 (UniProt Q658P3)
inactive: [1] -0.011 | [2] 0 | [3] 0.022 | [4] -0.034 | [5] -0.04

SQSTM1 (UniProt Q13501)
inactive: [1] 0 | [2] 0.097 | [3] -0.128 | [4] 0.096 | [5] 0.012

SREK1 isoform 2 (UniProt Q8WXA9)
inactive: [1] 0.05 | [2] -0.06 | [3] -0.039 | [4] -0.037 | [5] 0.026

ST7 (UniProt Q9NRC1)
inactive: [1] 0.021 | [2] 0.019 | [3] 0.082 | [4] 0.051 | [5] -0.012

SPATA5L1 (UniProt Q9BVQ7)
inactive: [1] 0.05 | [2] -0.014 | [3] 0.008 | [4] -0.001 | [5] 0

SSX2 (UniProt Q16385)
inactive: [1] 0.008 | [2] -0.024 | [3] 0.038 | [4] -0.021 | [5] 0.023

SPTAN1 isoform 2 (UniProt Q13813)
inactive: [1] 0 | [2] -0.012 | [3] 0.04 | [4] 0.016 | [5] 0.064

SRSF1 (UniProt Q07955)
inactive: [1] 0.071 | [2] -0.149 | [3] -0.244 | [4] 0.127 | [5] 0.079

SRRM2 (UniProt Q9UQ35)
inactive: [1] -0.005 | [2] -0.015 | [3] 0 | [4] 0.05 | [5] 0.037

STAT2 (UniProt P52630)
inactive: [1] 0.161 | [2] -0.203 | [3] 0.173 | [4] 0.107 | [5] -0.077

SPTLC2 (UniProt O15270)
inactive: [1] -0.019 | [2] 0.051 | [3] 0.065 | [4] -0.051 | [5] -0.019

SRI (UniProt P30626)
inactive: [1] -0.034 | [2] 0.111 | [3] 0.043 | [4] -0.093 | [5] -0.064

SRPRA (UniProt P08240)
inactive: [1] 0.001 | [2] -0.032 | [3] 0.031 | [4] -0.061 | [5] -0.038

SPRY4 (UniProt Q9C004)
inactive: [1] -0.047 | [2] -0.002 | [3] 0.015 | [4] -0.008 | [5] 0.017

SPTBN4 (UniProt Q9H254)
inactive: [1] -0.058 | [2] -0.083 | [3] 0.148 | [4] 0.014 | [5] -0.001

SRP68 (UniProt Q9UHB9)
inactive: [1] -0.041 | [2] 0.022 | [3] 0.039 | [4] 0.092 | [5] -0.029

SPCS1, A0A5F9YFS9
inactive: [1] 0.014 | [2] 0.277 | [3] 0.106 | [4] -0.176 | [5] -0.329

SRSF7 (UniProt Q16629)
inactive: [1] 0.136 | [2] -0.171 | [3] -0.093 | [4] 0.209 | [5] 0.055

STARD9 (UniProt Q9P2P6)
inactive: [1] -0.073 | [2] 0.147 | [3] -0.072 | [4] 0.042 | [5] -0.087

SRPK1 (UniProt Q96SB4)
inactive: [1] 0.045 | [2] -0.293 | [3] -0.4 | [4] 0.191 | [5] 0.008

SPTB isoform 2 (UniProt P11277)
inactive: [1] -0.015 | [2] 0.386 | [3] -0.019 | [4] 0.135 | [5] -0.055

SSR3 isoform 2 (UniProt Q9UNL2)
inactive: [1] 0.016 | [2] -0.087 | [3] -0.107 | [4] -0.078 | [5] -0.168

SPARC (UniProt P09486)
inactive: [1] 0.01 | [2] 0.059 | [3] 0.025 | [4] 0 | [5] 0.139

SPTBN2 (UniProt O15020)
inactive: [1] 0.007 | [2] -0.051 | [3] 0.065 | [4] 0.024 | [5] -0.046

ST6GALNAC1 (UniProt Q9NSC7)
inactive: [1] 0.049 | [2] -0.051 | [3] -0.039 | [4] 0.039 | [5] -0.027

SPHK1 isoform 2 (UniProt Q9NYA1)
inactive: [1] -0.076 | [2] 0.089 | [3] 0.03 | [4] -0.024 | [5] -0.018

STAM (UniProt Q92783)
inactive: [1] -0.049 | [2] 0.017 | [3] 0.041 | [4] -0.029 | [5] 0.009

ST3GAL2 (UniProt Q16842)
inactive: [1] 0.083 | [2] 0.006 | [3] 0.011 | [4] 0.005 | [5] 0.007

STAMBP (UniProt O95630)
inactive: [1] 0.007 | [2] 0.013 | [3] 0.028 | [4] -0.016 | [5] -0.001

ST13 (UniProt P50502)
inactive: [1] -0.029 | [2] 0.07 | [3] 0.039 | [4] -0.006 | [5] -0.018

SPIN1 (UniProt Q9Y657)
inactive: [1] -0.13 | [2] -0.037 | [3] 0.066 | [4] 0.022 | [5] 0.027

SQLE (UniProt Q14534)
inactive: [1] -0.012 | [2] 0.144 | [3] 0.032 | [4] -0.005 | [5] -0.052

STK11IP (UniProt Q8N1F8)
inactive: [1] 0.035 | [2] 0.026 | [3] -0.02 | [4] 0.05 | [5] -0.048

SRRM1 (UniProt Q8IYB3)
inactive: [1] 0.062 | [2] -0.056 | [3] -0.091 | [4] 0.202 | [5] 0.061

SPCS2 (UniProt Q15005)
inactive: [1] -0.011 | [2] 0.043 | [3] -0.034 | [4] -0.061 | [5] -0.031

SPTLC1 (UniProt O15269)
inactive: [1] -0.002 | [2] 0.03 | [3] 0.066 | [4] -0.107 | [5] -0.02

STK24 (UniProt Q9Y6E0)
inactive: [1] -0.017 | [2] 0.067 | [3] 0.055 | [4] 0.004 | [5] 0.005

SSR1 (UniProt P43307)
inactive: [1] 0.043 | [2] 0.009 | [3] 0.046 | [4] -0.003 | [5] 0.001

SRPK2 isoform 2 (UniProt P78362)
inactive: [1] 0.05 | [2] -0.19 | [3] -0.299 | [4] 0.186 | [5] 0

SPAST (UniProt Q9UBP0)
inactive: [1] -0.057 | [2] 0.026 | [3] 0.117 | [4] -0.016 | [5] -0.085

SPIRE1 (UniProt Q08AE8)
inactive: [1] 0.079 | [2] 0.002 | [3] 0.196 | [4] -0.01 | [5] 0.075

SRXN1 (UniProt Q9BYN0)
inactive: [1] -0.02 | [2] 0.086 | [3] 0.117 | [4] -0.05 | [5] 0.086

5 records drawn at random from those above:
SRPK2 isoform 2 (UniProt P78362)
inactive: [1] 0.05 | [2] -0.19 | [3] -0.299 | [4] 0.186 | [5] 0

SPCS2 (UniProt Q15005)
inactive: [1] -0.011 | [2] 0.043 | [3] -0.034 | [4] -0.061 | [5] -0.031

STK24 (UniProt Q9Y6E0)
inactive: [1] -0.017 | [2] 0.067 | [3] 0.055 | [4] 0.004 | [5] 0.005

SRXN1 (UniProt Q9BYN0)
inactive: [1] -0.02 | [2] 0.086 | [3] 0.117 | [4] -0.05 | [5] 0.086

SPTLC1 (UniProt O15269)
inactive: [1] -0.002 | [2] 0.03 | [3] 0.066 | [4] -0.107 | [5] -0.02

(further entries)

STAG1 (UniProt Q8WVM7)
inactive: [1] 0.014 | [2] 0.067 | [3] 0.071 | [4] -0.029 | [5] -0.011

SPR (UniProt P35270)
inactive: [1] 0.026 | [2] 0.04 | [3] 0.031 | [4] -0.058 | [5] -0.105

SRSF3 (UniProt P84103)
inactive: [1] 0.099 | [2] -0.18 | [3] -0.159 | [4] 0.152 | [5] 0.055

SRSF2 (UniProt Q01130)
inactive: [1] 0.008 | [2] -0.047 | [3] -0.052 | [4] 0.061 | [5] 0.143

SPPL2B (UniProt Q8TCT7)
inactive: [1] 0.039 | [2] 0.132 | [3] 0.049 | [4] 0.024 | [5] -0.022

SRPRB (UniProt Q9Y5M8)
inactive: [1] -0.005 | [2] 0.014 | [3] 0.034 | [4] -0.017 | [5] -0.016

SPNS1 (UniProt Q9H2V7)
inactive: [1] 0.005 | [2] -0.024 | [3] 0.063 | [4] -0.026 | [5] 0.035

SRP9 (UniProt P49458)
inactive: [1] 0.036 | [2] -0.268 | [3] -0.242 | [4] 0.154 | [5] 0.053

ST6GAL1 (UniProt P15907)
inactive: [1] 0.017 | [2] 0.012 | [3] 0.033 | [4] -0.018 | [5] -0.006
